One substance from PMC3914946 can be followed below.

Sequences of proteins named here, by UniProt entry; tags and fusion partners are left off.
UniProt P11802: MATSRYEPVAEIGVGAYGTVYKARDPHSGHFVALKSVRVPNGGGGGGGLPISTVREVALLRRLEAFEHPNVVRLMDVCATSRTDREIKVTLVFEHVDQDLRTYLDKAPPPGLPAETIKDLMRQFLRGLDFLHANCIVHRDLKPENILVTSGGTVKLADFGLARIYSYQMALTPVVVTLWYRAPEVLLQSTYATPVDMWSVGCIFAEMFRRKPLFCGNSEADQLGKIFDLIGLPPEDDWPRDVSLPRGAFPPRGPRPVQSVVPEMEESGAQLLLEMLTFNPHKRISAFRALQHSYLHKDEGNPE
UniProt P24385: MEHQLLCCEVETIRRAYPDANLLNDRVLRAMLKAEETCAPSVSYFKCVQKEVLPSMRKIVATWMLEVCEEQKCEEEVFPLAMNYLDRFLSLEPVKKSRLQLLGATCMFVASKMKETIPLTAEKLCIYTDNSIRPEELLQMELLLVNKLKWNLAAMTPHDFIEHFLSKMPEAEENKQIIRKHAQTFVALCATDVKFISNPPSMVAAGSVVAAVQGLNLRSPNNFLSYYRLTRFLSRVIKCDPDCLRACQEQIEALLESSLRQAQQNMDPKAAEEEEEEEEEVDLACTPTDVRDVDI

These are yes or no findings as the source states them, for the method shown. Binding seen in cells or lysates may run through a third protein. Some binding calls cover weakened binding; strength is not graded here.

The assay concerns the target CDK4 (human (endogenous in U2OS)) (UniProt P11802). The assay can be described thus: co-IP; CDK4 immunoprecipitated with anti-CDK4 antibody (H22) and Protein G Dynabeads from lysates of U2OS cells transfected with p16, p16-ACT, p14ARF, chARF or control; non-denaturing lysis buffer (50 mM Tris-HCl pH 8.0, 150 mM NaCl, 10% glycerol, 1% Igepal CA-630, 1 mM EDTA), 4°C; immunoblot of the precipitate. For orientation: A western blot detects proteins with antibodies after separation by electrophoresis.

Consider cyclin D1 (from UniProt P24385 1-295), for which the binding result is “binds”.
